Measured values: PMC10320005, “In Campylobacter jejuni, a new type of chaperone receives heme from ferrochelatase” (Frontiers in Genetics, 2023)

Sequences of proteins named here, by UniProt entry; tags and fusion partners are left off. A change or cut given only in a name is not applied to a line headed by its entry.
UniProt Q0PBE7: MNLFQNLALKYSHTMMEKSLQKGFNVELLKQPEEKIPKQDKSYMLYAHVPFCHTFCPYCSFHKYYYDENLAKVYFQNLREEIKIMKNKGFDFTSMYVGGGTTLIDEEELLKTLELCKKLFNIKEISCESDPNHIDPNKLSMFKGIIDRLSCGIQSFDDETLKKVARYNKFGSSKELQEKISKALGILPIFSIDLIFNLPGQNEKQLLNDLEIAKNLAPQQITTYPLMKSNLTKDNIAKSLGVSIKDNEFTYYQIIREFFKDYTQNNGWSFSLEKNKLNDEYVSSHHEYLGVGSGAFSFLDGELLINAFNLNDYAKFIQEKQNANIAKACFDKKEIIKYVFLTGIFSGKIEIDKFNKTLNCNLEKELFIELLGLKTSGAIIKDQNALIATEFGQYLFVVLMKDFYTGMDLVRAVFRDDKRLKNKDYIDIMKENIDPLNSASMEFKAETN

Target: T1, C. jejuni PpfC fused at the N-terminus to Strep-tag (apo-PpfC-Strep) (Campylobacter jejuni NCTC 11168) (UniProt Q9PI08)
T1 sequence: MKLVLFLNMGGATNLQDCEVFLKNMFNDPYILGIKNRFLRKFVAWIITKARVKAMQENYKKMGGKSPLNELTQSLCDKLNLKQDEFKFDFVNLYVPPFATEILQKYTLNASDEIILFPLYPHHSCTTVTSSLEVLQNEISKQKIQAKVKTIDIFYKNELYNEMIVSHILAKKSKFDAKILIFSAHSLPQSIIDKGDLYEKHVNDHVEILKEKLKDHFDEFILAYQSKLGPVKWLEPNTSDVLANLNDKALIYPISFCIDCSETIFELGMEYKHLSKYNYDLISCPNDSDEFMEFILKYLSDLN
Assay: pull-down; apo-PpfC-Strep incubated 30 min with apo-CgdH2-His in buffer B (50 mM Tris-HCl, pH 8) at 4°C; loaded onto Strep-Tactin Sepharose; washed with buffer B with 400 mM NaCl and 10% glycerol; eluted with 5 mM desthiobiotin; fractions on SDS-PAGE; both purified

- binding: binds
Substance: C. jejuni CgdH2 linked at the C-terminus to His-tag (apo-CgdH2-His) (from UniProt Q0PBE7)

No constants are given. Whether binding was seen depends on the method and setting. Binding calls can cover weak binding; strength is not graded here. Sequences can lack the tags named with a protein.
